# Data published in PubChem BioAssay AID2685 (National Center for Advancing Translational Sciences (NCATS), 2010).
# The campaign covered roughly 320,000 compounds. About 2,100 (0.66%) were called active. Inconclusive results, whose numbers are uncertain, are shown with a selection of clear calls. Calls come from the whole dose curve; as a rule, active = well fitted inhibition curve with a large enough effect in the signal ratio, with a control signal flat (not every such curve was filed as active); inconclusive = small, poorly fitted or top-dose-only effect, or effect the other way, or a change in a side signal; inactive = flat fitted curve, though single readings scatter; the % refers to the signal ratio. Where the call is inconclusive, the potency comes from a doubtful curve fit.
# Assay: qHTS Assay for Lipid Storage Modulators in Drosophila S3 Cells
# Conditions: BODIPY lipid droplet fluorescence, 18-24 h, cells fed with added oleic acid; lipid storage change, negative = inhibition: at 46.1 µM (top of the series) unless noted
# How it was run: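 Drosophila S3 cells got compounds at several concentrations plus oleic acid (400 uM solution). Laser-scanning cytometry with 488 nm excitation read lipid droplets at 500-530 nm and cells at 575-640 nm. Percent activity was relative to 20 uM Triacsin C.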
# % is set by controls: 0 for no effect and ±100 for the full control effect; potency is the fitted concentration of half-maximal effect.
SMILES,Potency,"lipid storage change, negative = inhibition"
CC(C(=O)N(C)C)N1c2cccc3cccc(c23)S1(=O)=O (stereo not given),"inconclusive: 29.1 µM [falling, single point]",
CCN1C(=O)[C@@H]2[C@@H](c3ccc(-c4ccc5c(c4)OCO5)c(OC)c3)N3CCCC[C@@]3(C(=O)OC)[C@@H]2C1=O,,inactive
O=C(Nc1cccc(C(F)(F)F)c1)C(Sc1ncnc2ccccc12)c1ccccc1 (stereo not given),,inconclusive: 1.21%
CCN1CCN(S(=O)(=O)c2ccc(Cl)c(C(=O)NC3CCC(C)CC3)c2)CC1 (stereo not given),,inconclusive: 6.38%
CCOC(=O)c1c(NC(=O)CN2CCCCC2)sc(CN(C)C)c1-c1ccccc1,,inconclusive: 14.1%
CCOC(=O)c1cnn(-c2ccccc2)c1NC(=O)c1ccccc1C,"inconclusive: 1.3 µM [activator, partial curve]",
CCO[C@H]1OC(C(=O)N2CCN(C)CC2)=C[C@@H](c2ccc(Br)cc2)[C@@H]1CCCO,,inactive
O=C(Nc1ccc(S(=O)(=O)Nc2ccccc2F)cc1)N1CCCCC1,"inconclusive: 29.1 µM [activator, single point]",
COc1cc(/C=N/NC(=O)CC2(C)OCCCO2)ccc1OCc1ccccc1,,inconclusive: 0.723%
CN1N=C(C(=O)N2CCCC(Nc3ccc(F)c(F)c3)C2)CCC1=O (stereo not given),"inconclusive: 2.31 µM [activator, full curve, poor fit]",
CC1(C)CC(NC(=O)C23CCC(C)(C(=O)C2=O)C3(C)C)CC(C)(C)N1 (stereo not given),,inconclusive: -1.28%
COc1ccc(S(=O)(=O)N2CCC(C(=O)N3CCCC3)CC2)cc1C,"inconclusive: 0.206 µM [activator, single point]",
CCCCOC(=O)c1ccc(NC(=O)COC(=O)CSc2nc(C)cc(C)n2)cc1,"inconclusive: 20.6 µM [activator, single point]",
CC(C)(C)c1ccc(OCCC(=O)Nc2cccc(S(=O)(=O)N3CCCCC3)c2)cc1,,inconclusive: 3.67%
O=C(Nc1ccc2c(c1)OCCO2)C(=S)NCc1ccccc1,,inconclusive: 8.53%
Cc1cc[n+](CC(=O)c2ccccc2)c2ccccc12,,inconclusive: -22.7%
CCn1c(=NC(=O)CS(=O)(=O)c2ccc(C)cc2)sc2cccc(OC)c21,,inconclusive: -82.5%
O=C(Cc1ccccc1)NNc1c2ccccc2nc2ccccc12,,inconclusive: 22.5% [at 9.22 µM]
Cc1ccc(Nc2nc3c(c(=O)[nH]2)CCCC3)cc1,,inconclusive: -11.7%
COc1ccccc1Nc1ccc([N+](=O)[O-])cc1N,"inconclusive: 4.61 µM [falling, single point]",
CCC(C)(C)NC(=O)C(OC(=O)c1ccco1)c1ccc(OC)cc1 (stereo not given),,inconclusive: 8.66%
CC(C)CCNc1c(-c2cccs2)nc2ccccn12,"inconclusive: 23.1 µM [falling, single point]",
O=C(c1ccco1)N1CCc2[nH]nc(-c3ccccc3)c2C1,"inconclusive: 8.2 µM [falling, partial curve, poor fit]",
CCCN(C(=O)c1cccs1)c1c(N)n(Cc2ccccc2)c(=O)[nH]c1=O,,inconclusive: 6.34%
C=CCOC(=O)C1=C[C@@H](c2ccccc2)[C@H](CCCO)[C@@H](OCC)O1,"inconclusive: 10.3 µM [falling, partial curve, poor fit]",

SMILES,Potency,"lipid storage change, negative = inhibition"
Cc1cc(SCCC(=O)O)nc2ccccc12,,inconclusive: -31.2%
C=CCn1c(C)cc(C(=O)COc2ccc(S(=O)(=O)N3CCCC3)cc2[N+](=O)[O-])c1C,"inconclusive: 2.31 µM [activator, single point]",
COCCN(C(=O)CNC(=O)c1ccco1)C(C(=O)NC1CCCC1)c1ccccc1 (stereo not given),,inconclusive: -25.1%
NC(=O)c1ccsc1NC(=O)COC(=O)c1c(F)cccc1Cl,,inconclusive: 17.5%
Cc1cccc(CSc2nc3[nH]ncc3c(=O)[nH]2)c1,,inconclusive: 14.5%
CC(C)(C)C(=O)NC1CCN(S(=O)(=O)c2ccccc2F)CC1,"inconclusive: 29.1 µM [falling, single point]",
CC(C)Oc1ccc(C(=O)OCC(=O)NC2CCCCCC2)cc1,,inconclusive: 12%
Cc1c(C(=O)NC2CC(=O)N(c3ccc4c(c3)OCCO4)C2)cccc1[N+](=O)[O-] (stereo not given),,inconclusive: 26.5%
CN(C)CCCN(C(=O)c1ccco1)c1nc(-c2ccc(Cl)cc2)cs1,"inconclusive: 20.6 µM [falling, single point]",
O=[N+]([O-])c1ccc(Sc2nnnn2-c2ccccc2)c(Cl)c1,"inconclusive: 0.0731 µM [falling, full curve, poor fit]",
O=C(CC12CC3CC(CC(C3)C1)C2)Nc1c(F)cccc1F,,inactive
CCOC(=O)C(NCc1ccccc1OC)(NC(=O)c1ccccc1)C(F)(F)F (stereo not given),"inconclusive: 29.1 µM [falling, single point]",
O=C(Nc1ccc(-n2cnnn2)cc1)C1CCCN1C(=O)NC1CCCCC1 (stereo not given),,inconclusive: 46.2%
CC(NCCOc1ccccc1F)C(=O)Nc1ccc(S(N)(=O)=O)cc1 (stereo not given),"inconclusive: 0.13 µM [falling, full curve, poor fit]",
COc1cc(/C=N/Nc2ncc(C(F)(F)F)cc2Cl)cc(OC)c1O,"inconclusive: 14.6 µM [activator, partial curve, poor fit]",
CC(=O)N1CCN(c2ccc(NC(=O)c3ccc([N+](=O)[O-])o3)cc2Cl)CC1,"inconclusive: 2.59 µM [falling, single point]",
COC(=O)c1sc(S(=O)(=O)Oc2ccccc2NC(C)=O)c(C(=O)OC)c1C,,inconclusive
Cc1occc1-c1nnc(SCc2cc(=O)n3cc(Br)ccc3n2)n1C,"inconclusive: 0.326 µM [activator, full curve, poor fit]",
CC(C)c1ccc(C2CC(=O)N3CN(C)CSC3=C2C#N)cc1 (stereo not given),"inconclusive: 7.31 µM [activator, partial curve, poor fit]",
CC(C)Cc1nnc(NC(=O)CS(=O)(=O)Cc2ccccc2)s1,,inconclusive: -18.9%
Cc1ccc(NC(=O)CCNS(=O)(=O)c2ccc3c(c2)CCC(=O)N3)c(Br)c1,"inconclusive: 9.2 µM [activator, partial curve, poor fit]",
CCc1cccc2c(C(=O)COC(=O)/C=C/c3ccc(O)c(OC)c3)c[nH]c12,"inconclusive: 29.1 µM [cytotoxic, single point]",
O=C1CN(C(=O)CC2c3ccccc3-c3ccccc32)CC(=O)N1,,inconclusive: -24.5%
COc1ccc(CCNC(=O)C2CCN(S(=O)(=O)c3ccc(OC)cc3)CC2)cc1,"inconclusive: 0.517 µM [activator, full curve]",
COc1ccc(C(=O)Nc2sc(C)c(C)c2CN2CCOCC2)cc1,,inconclusive: 13.1%

SMILES,Potency,"lipid storage change, negative = inhibition"
Cc1ccc(Nc2ncc(C(=O)NCCCN3CCN(C)CC3)c3ccccc23)cc1Cl,,inconclusive: -44.2%
CCOc1ccc(N2C(=O)c3cccnc3C2Nc2ccc(C)c(C)c2)cc1 (stereo not given),,inconclusive: 5.44%
O=C1C=C(c2cccc(CO)c2)C[C@@H](c2ccc(F)cc2)C1,,inconclusive: 38.8%
CCCCOc1cccc(/C=N/NC(=O)c2csc(C)c2C)c1,"inconclusive: 29.1 µM [falling, single point]",
CSc1ncccc1C(=O)Nc1ncc(C)s1,,inconclusive: 60.6%
COc1ccc(Cn2c(=S)[nH]c3cc(C(=O)N4CCN(c5ccccc5)CC4)ccc3c2=O)cc1,,inconclusive: -11%
C1CNCCNCCCNCCNC1,,inconclusive: -0.087%
CCOc1ccc(NC(=O)CCCN2C(=O)C(c3ccccc3)Oc3cccnc32)cc1 (stereo not given),"inconclusive: 29.1 µM [falling, single point]",
COc1ccc(-n2cc(CNCCCn3ccnc3)c(-c3ccccc3Cl)n2)cc1,,inconclusive: 20.8%
COCCNC(=O)c1nc2ccccc2s1,,inconclusive: -4.51%
CCc1nnc(NC=C2C(=O)OC(C)(C)OC2=O)s1,,inconclusive: 6.03%
C1CCC2(CC1)C1=C(CCCC1)Nc1nnnn12,,inconclusive: 53.4%
COc1ccccc1-c1ccc(=O)n(CC(=O)NCc2cccs2)n1,,inconclusive: -33.3%
COc1ccc(N2CCN(C(=S)Nc3ccc(C)cc3)CC2)cc1,,inactive
COc1ccc2oc(C(=O)NC3(C)CCS(=O)(=O)C3)c(C)c2c1 (stereo not given),,inconclusive
COc1ccc(-n2ccnc2SCC(=O)NC2CCCC2)c(OC)c1,,inconclusive: 16%
COc1ccc(/C=N/OCC(=O)OCC(=O)N(C)c2ccccc2)cc1,"inconclusive: 0.0116 µM [activator, full curve, poor fit]",
O=C(NCC(=O)N1CCN(c2ccccc2)CC1)c1ccc(Br)o1,"inconclusive: 29.1 µM [activator, single point]",
CC(=O)CC(=O)Nc1cccc2c1CCCC2,active: 0.58 µM,
O=C(CSc1nc(=O)n2ccccc2n1)NCCc1ccccc1,,inconclusive
Cc1ccc(Cl)cc1NC(=O)COC(=O)c1ccccc1O,,inconclusive: -20.5%
COC(=O)c1c(C)nc(C)c2c(=O)oc3ccccc3c12,,inconclusive: 16.2%
O=C(CC1SC(N2CCCC2)=NC1=O)Nc1ccc(C(=O)NCCOc2ccccc2F)cc1 (stereo not given),,inconclusive
O=C(CN1CCN(c2ccc(F)cc2)CC1)OCc1ccccc1,,inconclusive: 15.8%
CN(CC(=O)Nc1cccc(F)c1)C(=O)/C=C/c1ccc2ccccc2n1,,inconclusive: -34.2%

# Some of these compounds in order of length of the SMILES, low to high.
SMILES,Potency,"lipid storage change, negative = inhibition"
COCCNC(=O)c1nc2ccccc2s1,,inconclusive: -4.51%
O=C(CSc1nc(=O)n2ccccc2n1)NCCc1ccccc1,,inconclusive
CCOc1ccc(NC(=O)CCCN2C(=O)C(c3ccccc3)Oc3cccnc32)cc1 (stereo not given),"inconclusive: 29.1 µM [falling, single point]",
